In patent publication US6150090:

Tests used:
[1] = tested on: Oct-2 phage 3 beta-galactosidase fusion (Homo sapiens); test: competition with a labelled probe; conditions: slight competition; protein in a lysate after overexpression; protein details: beta-galactosidase fusion, lambda gt11 lysogen
[2] = target: T1, IgNF-A (NF-A1), ubiquitous octamer-binding protein (Homo sapiens) (UniProt P14859); test: competition with a labelled probe; conditions: NF-A1 in WEHI 231 (mouse) nuclear extract; partial competition; protein in an extract
T1 sequence (looked up, limits assumed): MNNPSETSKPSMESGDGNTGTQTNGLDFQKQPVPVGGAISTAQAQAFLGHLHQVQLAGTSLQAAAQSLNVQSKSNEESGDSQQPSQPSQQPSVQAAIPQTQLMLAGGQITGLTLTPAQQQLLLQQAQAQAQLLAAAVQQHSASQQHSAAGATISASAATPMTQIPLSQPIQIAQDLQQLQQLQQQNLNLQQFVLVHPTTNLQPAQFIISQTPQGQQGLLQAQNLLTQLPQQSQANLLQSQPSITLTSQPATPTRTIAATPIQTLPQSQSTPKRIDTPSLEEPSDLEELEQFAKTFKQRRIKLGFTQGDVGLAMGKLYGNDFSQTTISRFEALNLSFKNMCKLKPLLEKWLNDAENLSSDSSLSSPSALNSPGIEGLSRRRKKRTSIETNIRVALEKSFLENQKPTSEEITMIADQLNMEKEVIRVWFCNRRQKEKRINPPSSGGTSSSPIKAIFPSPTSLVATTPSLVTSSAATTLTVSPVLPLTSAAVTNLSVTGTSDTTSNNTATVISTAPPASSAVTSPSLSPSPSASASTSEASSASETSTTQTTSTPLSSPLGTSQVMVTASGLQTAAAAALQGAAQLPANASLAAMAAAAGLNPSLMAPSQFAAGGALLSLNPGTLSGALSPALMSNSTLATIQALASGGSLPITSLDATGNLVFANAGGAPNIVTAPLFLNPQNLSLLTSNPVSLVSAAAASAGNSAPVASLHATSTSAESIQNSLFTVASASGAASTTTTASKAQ

[3] = target: T2, IgNF-B (NF-A2), lymphoid octamer-binding protein (Homo sapiens) (UniProt P09086); test: competition with a labelled probe; conditions: WEHI 231 nuclear extract; partial competition; purified native protein; protein details: affinity purified from BJAB nuclear extract
T2 sequence (looked up, limits assumed): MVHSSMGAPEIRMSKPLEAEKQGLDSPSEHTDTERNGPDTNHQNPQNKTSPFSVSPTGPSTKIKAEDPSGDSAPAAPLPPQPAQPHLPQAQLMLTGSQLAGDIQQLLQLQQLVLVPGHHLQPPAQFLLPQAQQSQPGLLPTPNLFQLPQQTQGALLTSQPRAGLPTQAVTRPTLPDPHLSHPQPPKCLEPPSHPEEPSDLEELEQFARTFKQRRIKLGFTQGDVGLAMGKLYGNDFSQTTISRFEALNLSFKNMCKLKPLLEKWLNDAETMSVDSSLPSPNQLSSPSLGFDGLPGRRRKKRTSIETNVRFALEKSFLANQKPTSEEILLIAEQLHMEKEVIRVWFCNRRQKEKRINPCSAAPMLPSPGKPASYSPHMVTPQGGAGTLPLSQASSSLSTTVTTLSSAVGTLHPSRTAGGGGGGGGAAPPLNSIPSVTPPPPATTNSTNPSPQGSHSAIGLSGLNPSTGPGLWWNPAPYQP

[4] = tested on: lambda h3 MHC-element binding protein (PRDII-BF1) (Homo sapiens); test: binding assay; conditions: protein in a lysate after overexpression, protein details: beta-galactosidase fusion, lambda gt11 lysogen
[5] = tested on: lambda h3 MHC-element binding protein (PRDII-BF1) (Homo sapiens); test: EMSA; conditions: affinity higher than for kappa enhancer site; methylation interference at central Gs; protein in a lysate after overexpression; protein details: beta-galactosidase fusion, lambda gt11 lysogen
[6] = tested on: Oct-2 truncated at StuI (cDNA 655-1443) (Homo sapiens); test: EMSA; conditions: protein translated in vitro
[7] = target: T3, Oct-2 truncated at EagI (cDNA 655-945, helix-turn-helix deleted) (Homo sapiens) (UniProt P09086); test: EMSA; conditions: helix-turn-helix deleted; protein translated in vitro
T3 sequence (looked up): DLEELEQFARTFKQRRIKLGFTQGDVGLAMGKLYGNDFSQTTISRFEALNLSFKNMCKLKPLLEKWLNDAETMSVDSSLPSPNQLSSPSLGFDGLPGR

[8] = tested on: Oct-2 (pass-3 / 3-1 cDNA) (Homo sapiens); test: EMSA; conditions: KpnI-terminated and 3-1/pass-3 polypeptides; protein translated in vitro

Row | Sequence | binding result [1] | binding result [2] | binding result [3] | other results
1 | ATATTGCAT (double strand) [octamer mutant ATATTGCAT] | binds more weakly | binds more weakly | binds more weakly | –
2 | TCATTTCCAT (double strand) [octamer mutant TCATTTCCAT] | binds more weakly | binds more weakly | binds more weakly | –
3 | AAATCCCCTAAAACGAGGGATAAA (double strand) [lambda ori probe] | – | – | – | binding result ([4]; plaque filter): no binding
4 | GATCCGGCTGGGGATTCCCCATCT (double strand) [MHC element] | – | – | – | binding result [5]: binds
5 | ATGCAAAT (double strand) [OCTA probe] | – | – | – | binding result ([4]; plaque filter / renatured blot): no binding; binding result [6]: binds; binding result [7]: no binding; binding result [8]: binds

For part of these data: Weaker means in comparison with the reference protein, sequence or condition of that experiment. For part of these data: Protein sequences can lack the tags named with them. For part of these data: Results from cells or extracts need not show a direct contact. For part of these data: Construct, isoform or probe ends are uncertain for at least one entry. For part of these data: Negatives hold for the conditions tested.
